Data taken from PubChem BioAssay AID504749, deposited by NCATS (2011).

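A panel of P. falciparum strains inside erythrocytes is exposed to compounds for three days, then a DNA-binding dye reports the amount of parasite DNA.
Each compound was titrated across a series from about 0.000037 to 29 µM.
The number is the fitted AC50, the concentration giving a half-maximal change in signal; a lower value means higher potency, whether the curve shows a decrease or an increase.
Calls follow the curve class and fit quality: every row here is inconclusive, covering signal-raising curves and weak, poorly fitted, partial or highest-dose-only inhibition curves.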

Values are in µM.
All entries here are filed as inconclusive.
Only part of the assay is shown, chiefly results filed as inconclusive.
A potency from a partial, single-point or poor curve is only a rough figure.

| # | structure | setting | fitted potency (µM) | remark |
|---|---|---|---|---|
| 1 | `CC(=O)[C@]1(O)Cc2c(O)c3c(c(O)c2[C@@H](O[C@H]2C[C@H](N)[C@H](O)[C@H](C)O2)C1)C(=O)c1c(O)cccc1C3=O` | PC26 | 10.69 | inhibitor, partial curve |
| 2 | `CC(=O)[C@]1(O)Cc2c(O)c3c(c(O)c2[C@@H](O[C@H]2C[C@H](N)[C@H](O)[C@H](C)O2)C1)C(=O)c1c(O)cccc1C3=O` | CP329 | 10.69 | inhibitor, partial curve, poor fit |
| 3 | `CC(=O)[C@]1(O)Cc2c(O)c3c(c(O)c2[C@@H](O[C@H]2C[C@H](N)[C@H](O)[C@H](C)O2)C1)C(=O)c1c(O)cccc1C3=O` | CP238 | 11.22 | inhibitor, partial curve |
| 4 | `O=C(Nc1cccc(C(F)(F)F)c1)c1cc(Br)cc(Br)c1O` | PC15 | 11.22 | inhibitor, single point |
| 5 | `O=C(Nc1cccc(C(F)(F)F)c1)c1cc(Br)cc(Br)c1O` | ATS95 | 11.22 | inhibitor, single point |
| 6 | `O=C(Nc1cccc(C(F)(F)F)c1)c1cc(Br)cc(Br)c1O` | CP237 | 12.59 | inhibitor, single point |
| 7 | `O=C(Nc1cccc(C(F)(F)F)c1)c1cc(Br)cc(Br)c1O` | ATS189 | 10 | inhibitor, single point |
| 8 | `O=C(Nc1cccc(C(F)(F)F)c1)c1cc(Br)cc(Br)c1O` | CP266 | 19.01 | inhibitor, single point |
| 9 | `O=C(Nc1cccc(C(F)(F)F)c1)c1cc(Br)cc(Br)c1O` | CP185 | 10 | inhibitor, single point |
| 10 | `O=C(Nc1cccc(C(F)(F)F)c1)c1cc(Br)cc(Br)c1O` | CP335 | 19.01 | inhibitor, single point |
| 11 | `O=C(Nc1cccc(C(F)(F)F)c1)c1cc(Br)cc(Br)c1O` | C2A | 11.22 | inhibitor, single point |
| 12 | `O=C(Nc1cccc(C(F)(F)F)c1)c1cc(Br)cc(Br)c1O` | CP201 | 13.46 | inhibitor, single point |
| 13 | `O=C(Nc1cccc(C(F)(F)F)c1)c1cc(Br)cc(Br)c1O` | CP260 | 11.22 | inhibitor, single point |
| 14 | `O=C(Nc1cccc(C(F)(F)F)c1)c1cc(Br)cc(Br)c1O` | PC26 | 16.94 | inhibitor, single point |
| 15 | `O=C(Nc1cccc(C(F)(F)F)c1)c1cc(Br)cc(Br)c1O` | FAB9 | 17.78 | inhibitor, single point |
| 16 | `O=C(Nc1cccc(C(F)(F)F)c1)c1cc(Br)cc(Br)c1O` | CP265 | 10 | inhibitor, single point |
| 17 | `O=C(Nc1cccc(C(F)(F)F)c1)c1cc(Br)cc(Br)c1O` | CP286 | 12.59 | inhibitor, single point |
| 18 | `O=C(Nc1cccc(C(F)(F)F)c1)c1cc(Br)cc(Br)c1O` | HB3 | 12.59 | inhibitor, single point |
| 19 | `O=C(Nc1cccc(C(F)(F)F)c1)c1cc(Br)cc(Br)c1O` | CP256 | 11.22 | inhibitor, single point |
| 20 | `O=C(Nc1cccc(C(F)(F)F)c1)c1cc(Br)cc(Br)c1O` | P93_24 | 12.59 | inhibitor, single point |
| 21 | `O=C(Nc1cccc(C(F)(F)F)c1)c1cc(Br)cc(Br)c1O` | CP194 | 13.46 | inhibitor, single point |
| 22 | `O=C(Nc1cccc(C(F)(F)F)c1)c1cc(Br)cc(Br)c1O` | CP192 | 13.46 | inhibitor, partial curve |
| 23 | `O=C(Nc1cccc(C(F)(F)F)c1)c1cc(Br)cc(Br)c1O` | GB4 | 16.94 | inhibitor, single point |
| 24 | `O=C(Nc1cccc(C(F)(F)F)c1)c1cc(Br)cc(Br)c1O` | 3D7 | 12.59 | inhibitor, single point |
| 25 | `O=C(Nc1cccc(C(F)(F)F)c1)c1cc(Br)cc(Br)c1O` | CP269 | 16.94 | inhibitor, single point |
| 26 | `O=C(Nc1cccc(C(F)(F)F)c1)c1cc(Br)cc(Br)c1O` | CP191 | 11.22 | inhibitor, single point |
| 27 | `O=C(Nc1cccc(C(F)(F)F)c1)c1cc(Br)cc(Br)c1O` | PC49 | 11.22 | inhibitor, single point |
| 28 | `O=C(Nc1cccc(C(F)(F)F)c1)c1cc(Br)cc(Br)c1O` | P94_40 | 12.59 | inhibitor, single point |
| 29 | `O=C(Nc1cccc(C(F)(F)F)c1)c1cc(Br)cc(Br)c1O` | AA1029 | 11.22 | inhibitor, single point |
| 30 | `O=C(Nc1cccc(C(F)(F)F)c1)c1cc(Br)cc(Br)c1O` | Dd2 | 14.13 | inhibitor, partial curve |
| 31 | `O=C(Nc1cccc(C(F)(F)F)c1)c1cc(Br)cc(Br)c1O` | TAB109 | 17.78 | inhibitor, single point |
| 32 | `O=C(Nc1cccc(C(F)(F)F)c1)c1cc(Br)cc(Br)c1O` | CP329 | 13.46 | inhibitor, single point |
| 33 | `O=C(Nc1cccc(C(F)(F)F)c1)c1cc(Br)cc(Br)c1O` | CP268 | 16.94 | inhibitor, partial curve |
| 34 | `O=C(Nc1cccc(C(F)(F)F)c1)c1cc(Br)cc(Br)c1O` | PAD | 11.22 | inhibitor, single point |
| 35 | `O=C(Nc1cccc(C(F)(F)F)c1)c1cc(Br)cc(Br)c1O` | CP252 | 15.85 | inhibitor, single point |
| 36 | `O=C(Nc1cccc(C(F)(F)F)c1)c1cc(Br)cc(Br)c1O` | CP262 | 19.01 | inhibitor, single point |
| 37 | `O=C(Nc1cccc(C(F)(F)F)c1)c1cc(Br)cc(Br)c1O` | CP297 | 16.94 | inhibitor, single point |
| 38 | `O=C(Nc1cccc(C(F)(F)F)c1)c1cc(Br)cc(Br)c1O` | CP325 | 13.46 | inhibitor, single point |
| 39 | `O=C(Nc1cccc(C(F)(F)F)c1)c1cc(Br)cc(Br)c1O` | CP250 | 17.78 | inhibitor, single point |
| 40 | `O=C(Nc1cccc(C(F)(F)F)c1)c1cc(Br)cc(Br)c1O` | CP238 | 17.78 | inhibitor, single point |
| 41 | `O=C(Nc1cccc(C(F)(F)F)c1)c1cc(Br)cc(Br)c1O` | CP305 | 10.69 | inhibitor, partial curve |
| 42 | `Cc1nc2sccn2c(=O)c1CCN1CCC(=C(c2ccc(F)cc2)c2ccc(F)cc2)CC1` | GB4 | 13.46 | inhibitor, partial curve |
| 43 | `Cc1nc2sccn2c(=O)c1CCN1CCC(=C(c2ccc(F)cc2)c2ccc(F)cc2)CC1` | CP291 | 8.492 | inhibitor, partial curve |
| 44 | `Cc1nc2sccn2c(=O)c1CCN1CCC(=C(c2ccc(F)cc2)c2ccc(F)cc2)CC1` | DFO2036 | 17.78 | inhibitor, single point |
| 45 | `Cc1nc2sccn2c(=O)c1CCN1CCC(=C(c2ccc(F)cc2)c2ccc(F)cc2)CC1` | CP203 | 13.46 | inhibitor, single point |
| 46 | `Cc1nc2sccn2c(=O)c1CCN1CCC(=C(c2ccc(F)cc2)c2ccc(F)cc2)CC1` | N140 | 14.13 | inhibitor, partial curve, poor fit |
| 47 | `Cc1nc2sccn2c(=O)c1CCN1CCC(=C(c2ccc(F)cc2)c2ccc(F)cc2)CC1` | Dd2 | 11.22 | inhibitor, partial curve |
| 48 | `Cc1nc2sccn2c(=O)c1CCN1CCC(=C(c2ccc(F)cc2)c2ccc(F)cc2)CC1` | C2A | 17.78 | inhibitor, single point |
| 49 | `Cc1nc2sccn2c(=O)c1CCN1CCC(=C(c2ccc(F)cc2)c2ccc(F)cc2)CC1` | PC26 | 9.528 | inhibitor, partial curve |
| 50 | `Cc1nc2sccn2c(=O)c1CCN1CCC(=C(c2ccc(F)cc2)c2ccc(F)cc2)CC1` | PC15 | 2.512 | inhibitor, partial curve, poor fit |
| 51 | `Cc1nc2sccn2c(=O)c1CCN1CCC(=C(c2ccc(F)cc2)c2ccc(F)cc2)CC1` | JCK | 12.59 | inhibitor, single point |